No constants are given. Whether binding was seen depends on the method and setting. In cells and extracts the contact can be indirect. These calls come from enrichment with a bait or labelling near it, and not all partners need be listed.

The chains behind the UniProt entries cited, without tags or fusion partners.
UniProt Q9Y572: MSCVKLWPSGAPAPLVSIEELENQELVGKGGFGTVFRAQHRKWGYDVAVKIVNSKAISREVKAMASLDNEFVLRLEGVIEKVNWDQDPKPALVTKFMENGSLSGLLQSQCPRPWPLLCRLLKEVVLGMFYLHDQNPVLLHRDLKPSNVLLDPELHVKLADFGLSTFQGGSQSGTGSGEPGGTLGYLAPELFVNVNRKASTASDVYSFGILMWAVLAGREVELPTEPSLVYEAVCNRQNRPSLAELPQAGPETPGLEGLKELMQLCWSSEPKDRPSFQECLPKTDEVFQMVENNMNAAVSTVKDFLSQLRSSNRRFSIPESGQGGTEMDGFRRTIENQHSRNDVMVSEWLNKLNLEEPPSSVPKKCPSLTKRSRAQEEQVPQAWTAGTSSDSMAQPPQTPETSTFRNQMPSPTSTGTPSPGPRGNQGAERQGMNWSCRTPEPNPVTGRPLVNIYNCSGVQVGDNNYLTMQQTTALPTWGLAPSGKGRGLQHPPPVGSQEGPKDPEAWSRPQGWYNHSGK
UniProt Q14258: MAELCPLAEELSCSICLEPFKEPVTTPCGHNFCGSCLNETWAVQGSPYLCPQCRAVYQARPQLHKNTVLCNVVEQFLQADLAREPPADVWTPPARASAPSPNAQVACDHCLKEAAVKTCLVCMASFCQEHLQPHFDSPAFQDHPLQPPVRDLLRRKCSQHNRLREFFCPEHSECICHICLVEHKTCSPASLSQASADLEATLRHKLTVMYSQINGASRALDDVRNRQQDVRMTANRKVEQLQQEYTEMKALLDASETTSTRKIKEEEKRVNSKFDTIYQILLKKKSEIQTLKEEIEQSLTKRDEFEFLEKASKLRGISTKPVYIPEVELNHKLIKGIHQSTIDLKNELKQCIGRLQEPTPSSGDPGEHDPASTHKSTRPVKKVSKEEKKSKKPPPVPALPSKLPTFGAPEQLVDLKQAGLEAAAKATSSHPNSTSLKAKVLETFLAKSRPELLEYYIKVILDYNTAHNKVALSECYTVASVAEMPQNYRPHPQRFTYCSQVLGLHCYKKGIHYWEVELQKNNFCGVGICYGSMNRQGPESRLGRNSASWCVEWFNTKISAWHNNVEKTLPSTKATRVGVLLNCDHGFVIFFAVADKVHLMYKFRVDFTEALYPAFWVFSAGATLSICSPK

For the experiment, the target named is human RIP3 overexpressed for mass spectrometry (human) (UniProt Q9Y572). The experiment is described as follows: affinity purification with mass spectrometry; human RIP3 overexpressed in HeLa and HEK293T cells, immunoprecipitation with an anti-RIP3 antibody, high-sensitivity mass spectrometry.

Regarding “endogenous TRIM25 (from UniProt Q14258 1-630)”, the binding result was “binds”.
